The source of these data is publication PMC11183229.

Protein sequences, listed by entry. Tags and fused reporters are not part of them.
UniProt P21279: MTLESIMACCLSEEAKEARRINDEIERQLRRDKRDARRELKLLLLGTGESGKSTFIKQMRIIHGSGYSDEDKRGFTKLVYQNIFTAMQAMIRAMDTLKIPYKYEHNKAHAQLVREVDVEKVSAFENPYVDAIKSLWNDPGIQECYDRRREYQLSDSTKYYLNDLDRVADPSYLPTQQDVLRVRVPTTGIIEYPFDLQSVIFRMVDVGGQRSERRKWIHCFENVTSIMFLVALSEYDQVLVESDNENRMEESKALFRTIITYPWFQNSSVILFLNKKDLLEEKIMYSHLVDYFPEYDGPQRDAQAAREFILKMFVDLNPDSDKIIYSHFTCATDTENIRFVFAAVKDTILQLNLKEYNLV

The target of the assay is T1, HA-tagged TMC6 (mouse) (UniProt Q7TN60).
T1 sequence: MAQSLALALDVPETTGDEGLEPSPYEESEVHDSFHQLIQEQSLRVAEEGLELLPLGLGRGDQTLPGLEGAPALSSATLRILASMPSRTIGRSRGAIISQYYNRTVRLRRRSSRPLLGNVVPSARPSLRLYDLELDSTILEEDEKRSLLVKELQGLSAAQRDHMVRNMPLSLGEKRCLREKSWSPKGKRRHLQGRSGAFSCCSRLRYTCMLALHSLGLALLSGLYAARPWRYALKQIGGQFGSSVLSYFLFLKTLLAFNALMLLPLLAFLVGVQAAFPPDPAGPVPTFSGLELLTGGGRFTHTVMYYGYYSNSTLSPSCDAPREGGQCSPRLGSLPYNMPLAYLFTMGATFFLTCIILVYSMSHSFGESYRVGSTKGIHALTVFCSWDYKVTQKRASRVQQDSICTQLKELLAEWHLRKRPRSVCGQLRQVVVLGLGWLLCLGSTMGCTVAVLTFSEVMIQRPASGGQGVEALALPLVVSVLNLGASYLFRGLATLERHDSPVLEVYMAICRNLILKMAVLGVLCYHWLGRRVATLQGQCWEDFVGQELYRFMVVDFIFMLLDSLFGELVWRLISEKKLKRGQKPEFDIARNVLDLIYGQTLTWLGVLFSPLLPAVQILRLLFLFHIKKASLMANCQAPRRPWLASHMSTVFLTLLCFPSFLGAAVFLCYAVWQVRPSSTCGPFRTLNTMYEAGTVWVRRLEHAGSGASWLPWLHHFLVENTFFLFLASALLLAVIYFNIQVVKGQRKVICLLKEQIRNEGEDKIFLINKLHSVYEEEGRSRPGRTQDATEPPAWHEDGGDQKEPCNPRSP
Kind of assay: affinity purification with mass spectrometry; IP with antibody against HA from lysate of ND7/23 cells overexpressing 2HA-TMC6, then mass spectrometry.

No constants are given. Whether binding was seen depends on the method and setting. In cells and extracts the contact can be indirect. These calls come from enrichment with a bait or labelling near it, and not all partners need be listed. Sequences can lack the tags named with a protein.

For the substance “Gαq (endogenous, ND7/23 cells) (from UniProt P21279 1-359)”, the binding result was “binds”.
